Reference: the supplement of paper PMC7666118
The other results are listed elsewhere or left out.

Chains of the proteins cited; added tags and fusions are not shown. Lines headed by an entry give the natural chain unless they say otherwise; changes in a name come on top.
UniProt Q9Y2S2: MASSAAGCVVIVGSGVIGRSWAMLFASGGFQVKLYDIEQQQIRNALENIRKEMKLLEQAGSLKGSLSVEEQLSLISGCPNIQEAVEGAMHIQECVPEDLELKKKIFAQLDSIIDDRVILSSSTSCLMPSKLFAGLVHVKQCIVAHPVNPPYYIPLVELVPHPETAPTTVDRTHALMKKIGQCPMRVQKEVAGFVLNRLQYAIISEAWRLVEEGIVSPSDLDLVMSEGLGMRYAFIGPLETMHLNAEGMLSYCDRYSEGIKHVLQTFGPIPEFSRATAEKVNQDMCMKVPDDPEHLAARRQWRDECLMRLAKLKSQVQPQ
UniProt Q9NYV4, whole entry, looked up: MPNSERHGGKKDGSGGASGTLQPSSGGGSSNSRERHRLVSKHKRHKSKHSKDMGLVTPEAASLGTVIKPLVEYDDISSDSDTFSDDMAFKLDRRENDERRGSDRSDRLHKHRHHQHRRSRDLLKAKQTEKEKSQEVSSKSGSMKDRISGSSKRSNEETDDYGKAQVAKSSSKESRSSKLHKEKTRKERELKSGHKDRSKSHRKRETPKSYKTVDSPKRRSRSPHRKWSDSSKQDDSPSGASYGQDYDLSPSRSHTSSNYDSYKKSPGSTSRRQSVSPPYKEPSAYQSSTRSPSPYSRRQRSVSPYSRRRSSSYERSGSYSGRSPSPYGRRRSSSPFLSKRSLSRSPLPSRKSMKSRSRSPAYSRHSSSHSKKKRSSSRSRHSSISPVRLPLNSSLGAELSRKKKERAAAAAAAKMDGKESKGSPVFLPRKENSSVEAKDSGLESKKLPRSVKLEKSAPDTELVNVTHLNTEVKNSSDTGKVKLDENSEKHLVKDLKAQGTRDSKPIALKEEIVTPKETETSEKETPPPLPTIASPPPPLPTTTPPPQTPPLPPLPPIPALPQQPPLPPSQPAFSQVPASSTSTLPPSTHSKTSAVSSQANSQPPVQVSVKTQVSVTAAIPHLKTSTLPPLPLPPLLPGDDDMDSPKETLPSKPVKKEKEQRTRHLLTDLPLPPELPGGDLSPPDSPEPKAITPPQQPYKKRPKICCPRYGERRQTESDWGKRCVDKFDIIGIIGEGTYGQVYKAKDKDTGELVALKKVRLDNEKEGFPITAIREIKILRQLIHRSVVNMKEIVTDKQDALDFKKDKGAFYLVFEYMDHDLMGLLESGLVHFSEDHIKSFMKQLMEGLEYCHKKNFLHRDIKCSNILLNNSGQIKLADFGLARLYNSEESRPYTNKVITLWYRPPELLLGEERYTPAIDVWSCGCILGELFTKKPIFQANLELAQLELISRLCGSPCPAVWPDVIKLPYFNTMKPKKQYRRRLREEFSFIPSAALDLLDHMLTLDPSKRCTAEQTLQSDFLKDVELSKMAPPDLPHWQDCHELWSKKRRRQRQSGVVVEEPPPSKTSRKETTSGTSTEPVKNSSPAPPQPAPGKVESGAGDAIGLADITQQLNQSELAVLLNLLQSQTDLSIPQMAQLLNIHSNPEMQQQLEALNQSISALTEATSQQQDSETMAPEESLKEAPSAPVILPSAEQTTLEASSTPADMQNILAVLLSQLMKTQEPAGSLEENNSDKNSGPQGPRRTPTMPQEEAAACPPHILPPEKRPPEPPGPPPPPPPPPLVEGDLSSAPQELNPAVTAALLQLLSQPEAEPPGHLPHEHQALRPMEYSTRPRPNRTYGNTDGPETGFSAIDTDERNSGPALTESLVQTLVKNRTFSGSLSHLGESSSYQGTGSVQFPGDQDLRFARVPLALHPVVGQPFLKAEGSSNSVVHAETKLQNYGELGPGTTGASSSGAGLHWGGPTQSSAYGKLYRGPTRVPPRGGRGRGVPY
UniProt O95232: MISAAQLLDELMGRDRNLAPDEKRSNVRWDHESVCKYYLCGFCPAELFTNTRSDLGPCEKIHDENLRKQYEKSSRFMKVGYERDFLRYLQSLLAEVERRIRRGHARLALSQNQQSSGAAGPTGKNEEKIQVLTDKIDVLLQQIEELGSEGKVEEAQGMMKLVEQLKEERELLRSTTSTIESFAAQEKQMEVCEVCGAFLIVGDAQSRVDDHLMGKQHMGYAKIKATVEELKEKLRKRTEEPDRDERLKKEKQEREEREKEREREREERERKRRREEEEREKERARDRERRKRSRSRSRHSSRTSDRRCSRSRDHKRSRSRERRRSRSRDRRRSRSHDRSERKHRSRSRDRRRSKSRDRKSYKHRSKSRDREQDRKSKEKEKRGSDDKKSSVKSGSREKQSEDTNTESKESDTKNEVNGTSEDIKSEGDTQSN
UniProt Q14061: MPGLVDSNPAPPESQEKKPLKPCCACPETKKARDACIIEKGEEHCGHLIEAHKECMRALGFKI
UniProt O14579: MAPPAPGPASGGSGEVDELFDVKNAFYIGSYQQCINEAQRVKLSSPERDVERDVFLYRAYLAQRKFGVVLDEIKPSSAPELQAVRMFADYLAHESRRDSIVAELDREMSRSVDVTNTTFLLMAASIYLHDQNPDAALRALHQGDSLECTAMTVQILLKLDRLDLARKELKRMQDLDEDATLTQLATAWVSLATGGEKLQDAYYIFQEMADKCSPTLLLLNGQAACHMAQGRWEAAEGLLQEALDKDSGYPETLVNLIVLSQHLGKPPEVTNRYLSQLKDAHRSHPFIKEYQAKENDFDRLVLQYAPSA
UniProt P14854, whole entry: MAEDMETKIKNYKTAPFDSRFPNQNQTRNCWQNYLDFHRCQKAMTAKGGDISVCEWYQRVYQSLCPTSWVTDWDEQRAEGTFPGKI
UniProt Q86SQ9: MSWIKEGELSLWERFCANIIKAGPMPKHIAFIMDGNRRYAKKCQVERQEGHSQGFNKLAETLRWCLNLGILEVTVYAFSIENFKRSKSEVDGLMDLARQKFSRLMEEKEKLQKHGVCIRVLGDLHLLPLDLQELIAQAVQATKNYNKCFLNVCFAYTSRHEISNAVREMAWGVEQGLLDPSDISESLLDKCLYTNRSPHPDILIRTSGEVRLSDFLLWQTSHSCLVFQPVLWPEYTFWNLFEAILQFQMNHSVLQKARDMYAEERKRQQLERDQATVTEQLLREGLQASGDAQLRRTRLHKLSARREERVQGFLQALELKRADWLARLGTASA
UniProt P13073, whole entry: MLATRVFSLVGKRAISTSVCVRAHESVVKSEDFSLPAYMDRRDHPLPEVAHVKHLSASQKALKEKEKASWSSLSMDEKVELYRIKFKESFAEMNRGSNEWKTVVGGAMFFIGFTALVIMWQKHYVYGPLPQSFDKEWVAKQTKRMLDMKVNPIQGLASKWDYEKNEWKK
UniProt O15121: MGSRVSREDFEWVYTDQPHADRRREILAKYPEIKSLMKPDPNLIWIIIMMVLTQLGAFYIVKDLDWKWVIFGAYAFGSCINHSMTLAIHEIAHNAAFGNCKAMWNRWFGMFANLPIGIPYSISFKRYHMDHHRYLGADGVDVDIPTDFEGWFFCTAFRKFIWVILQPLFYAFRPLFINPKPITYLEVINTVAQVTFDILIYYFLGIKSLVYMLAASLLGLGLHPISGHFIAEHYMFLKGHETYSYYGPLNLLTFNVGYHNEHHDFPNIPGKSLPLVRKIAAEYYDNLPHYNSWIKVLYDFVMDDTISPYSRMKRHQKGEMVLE
UniProt Q02127: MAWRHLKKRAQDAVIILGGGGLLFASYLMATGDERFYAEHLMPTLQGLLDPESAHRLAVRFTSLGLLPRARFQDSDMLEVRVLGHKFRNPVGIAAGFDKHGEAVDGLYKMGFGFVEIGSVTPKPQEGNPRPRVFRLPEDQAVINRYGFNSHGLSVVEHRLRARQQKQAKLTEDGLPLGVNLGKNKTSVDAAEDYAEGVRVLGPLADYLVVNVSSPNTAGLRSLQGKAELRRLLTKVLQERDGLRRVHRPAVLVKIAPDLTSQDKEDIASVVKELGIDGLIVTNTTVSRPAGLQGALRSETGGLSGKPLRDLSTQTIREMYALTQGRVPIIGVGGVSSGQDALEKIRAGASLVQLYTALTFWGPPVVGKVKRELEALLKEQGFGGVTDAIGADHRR
UniProt Q9P0S2: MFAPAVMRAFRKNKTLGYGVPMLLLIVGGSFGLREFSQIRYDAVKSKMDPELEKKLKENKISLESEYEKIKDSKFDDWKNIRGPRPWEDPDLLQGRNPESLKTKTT
UniProt O95786: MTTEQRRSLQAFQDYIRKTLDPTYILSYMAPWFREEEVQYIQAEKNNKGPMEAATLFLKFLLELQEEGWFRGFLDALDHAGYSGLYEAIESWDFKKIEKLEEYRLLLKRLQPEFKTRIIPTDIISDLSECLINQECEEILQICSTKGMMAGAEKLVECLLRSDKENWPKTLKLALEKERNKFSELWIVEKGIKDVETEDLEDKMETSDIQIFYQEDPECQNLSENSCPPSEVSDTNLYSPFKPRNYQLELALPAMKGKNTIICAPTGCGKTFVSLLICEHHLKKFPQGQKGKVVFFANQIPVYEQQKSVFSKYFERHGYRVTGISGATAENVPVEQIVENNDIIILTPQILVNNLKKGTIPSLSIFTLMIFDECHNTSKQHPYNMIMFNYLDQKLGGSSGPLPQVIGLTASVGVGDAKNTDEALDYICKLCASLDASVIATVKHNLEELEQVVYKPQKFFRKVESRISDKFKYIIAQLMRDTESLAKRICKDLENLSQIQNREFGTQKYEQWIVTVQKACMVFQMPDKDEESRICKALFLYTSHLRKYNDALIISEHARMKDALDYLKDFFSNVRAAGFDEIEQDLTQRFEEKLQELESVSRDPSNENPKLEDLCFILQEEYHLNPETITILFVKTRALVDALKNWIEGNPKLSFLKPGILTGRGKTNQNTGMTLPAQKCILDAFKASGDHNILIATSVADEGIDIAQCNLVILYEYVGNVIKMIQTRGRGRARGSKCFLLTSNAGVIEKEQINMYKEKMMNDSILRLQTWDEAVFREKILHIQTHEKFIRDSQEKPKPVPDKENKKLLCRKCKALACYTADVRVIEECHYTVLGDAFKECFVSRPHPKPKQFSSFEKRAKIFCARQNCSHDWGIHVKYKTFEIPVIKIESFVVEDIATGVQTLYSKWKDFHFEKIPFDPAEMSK
UniProt P21291: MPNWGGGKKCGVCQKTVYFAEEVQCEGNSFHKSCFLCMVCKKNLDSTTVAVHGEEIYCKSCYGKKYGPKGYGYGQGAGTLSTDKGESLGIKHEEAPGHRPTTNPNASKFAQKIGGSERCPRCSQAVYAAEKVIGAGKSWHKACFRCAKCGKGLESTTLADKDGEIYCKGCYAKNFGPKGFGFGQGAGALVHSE
UniProt Q8WYQ5: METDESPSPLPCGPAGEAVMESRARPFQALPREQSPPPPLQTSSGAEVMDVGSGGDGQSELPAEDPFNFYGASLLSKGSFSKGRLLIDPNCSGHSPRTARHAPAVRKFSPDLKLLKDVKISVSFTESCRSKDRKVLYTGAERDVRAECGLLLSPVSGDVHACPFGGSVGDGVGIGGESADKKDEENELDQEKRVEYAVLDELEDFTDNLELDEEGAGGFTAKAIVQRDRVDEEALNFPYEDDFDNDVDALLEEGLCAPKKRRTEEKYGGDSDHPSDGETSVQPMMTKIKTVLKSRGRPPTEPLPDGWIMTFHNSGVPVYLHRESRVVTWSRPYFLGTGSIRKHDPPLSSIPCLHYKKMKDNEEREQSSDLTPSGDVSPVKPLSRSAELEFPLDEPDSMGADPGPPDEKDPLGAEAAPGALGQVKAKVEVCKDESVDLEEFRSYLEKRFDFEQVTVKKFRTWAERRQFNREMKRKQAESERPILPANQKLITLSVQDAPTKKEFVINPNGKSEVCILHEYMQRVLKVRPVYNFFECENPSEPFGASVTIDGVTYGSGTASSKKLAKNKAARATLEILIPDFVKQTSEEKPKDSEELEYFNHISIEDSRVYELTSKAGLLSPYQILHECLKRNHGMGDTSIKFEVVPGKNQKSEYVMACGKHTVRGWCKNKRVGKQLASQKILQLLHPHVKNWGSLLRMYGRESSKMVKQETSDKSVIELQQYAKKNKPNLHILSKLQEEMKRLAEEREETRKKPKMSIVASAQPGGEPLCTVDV
UniProt P10619: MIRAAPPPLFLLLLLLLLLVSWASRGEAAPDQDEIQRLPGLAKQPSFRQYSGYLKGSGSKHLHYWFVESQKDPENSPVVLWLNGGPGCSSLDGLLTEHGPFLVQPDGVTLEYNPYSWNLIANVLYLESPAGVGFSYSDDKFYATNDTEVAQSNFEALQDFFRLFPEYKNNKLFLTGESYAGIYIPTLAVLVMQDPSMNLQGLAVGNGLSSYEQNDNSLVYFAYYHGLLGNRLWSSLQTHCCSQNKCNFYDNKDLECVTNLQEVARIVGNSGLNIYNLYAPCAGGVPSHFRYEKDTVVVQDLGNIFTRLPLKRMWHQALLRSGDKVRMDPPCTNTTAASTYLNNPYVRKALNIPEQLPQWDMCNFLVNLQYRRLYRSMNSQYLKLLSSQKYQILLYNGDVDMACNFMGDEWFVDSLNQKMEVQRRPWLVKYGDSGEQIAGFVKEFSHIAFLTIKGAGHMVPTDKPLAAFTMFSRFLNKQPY
UniProt Q9UBI1, whole entry: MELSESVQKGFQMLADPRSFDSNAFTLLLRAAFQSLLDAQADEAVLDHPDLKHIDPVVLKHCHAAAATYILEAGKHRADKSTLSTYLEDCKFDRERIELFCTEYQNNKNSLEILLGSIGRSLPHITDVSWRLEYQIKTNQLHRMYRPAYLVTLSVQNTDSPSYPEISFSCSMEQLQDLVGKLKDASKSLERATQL

The targets below were run with COc1ccc(Cn2ccc3ccc(C(=O)NO)cc32)cc1 (assay: dose-dependent thermal stabilisation call (2D-TPP, DLPTP, 10% FDR) (binary (1 = stabilised)); higher = stabilised by the compound). Details: system: HL-60 intact cells; concentration range 0.04-10 µM.
CRYL1 (UniProt Q9Y2S2) was tested, and the “dose-dependent thermal stabilisation call” value was inactive: 0.
With DHCR7 (UniProt Q9UBM7) the “dose-dependent thermal stabilisation call” value was inactive: 0.
For CRKRS (UniProt Q9NYV4), the “dose-dependent thermal stabilisation call” value was inactive: 0.
For CROP (UniProt O95232), the “dose-dependent thermal stabilisation call” value was inactive: 0.
COX17 (UniProt Q14061) was tested, and the “dose-dependent thermal stabilisation call” value was inactive: 0.
With DDX60 (UniProt Q8IY21) the “dose-dependent thermal stabilisation call” value was inactive: 0.
With CXADR (UniProt P78310) the “dose-dependent thermal stabilisation call” value was inactive: 0.
COPE (UniProt O14579) was tested, and the “dose-dependent thermal stabilisation call” value was inactive: 0.
In the case of CUTC (UniProt Q9NTM9), the “dose-dependent thermal stabilisation call” value is reported as inactive: 0.
COX6B1 (UniProt P14854) was tested, and the “dose-dependent thermal stabilisation call” value was inactive: 0.
With DDHD2 (UniProt O94830) the “dose-dependent thermal stabilisation call” value was inactive: 0.
COPS2 (UniProt P61201) was tested, and the “dose-dependent thermal stabilisation call” value was inactive: 0.
DHDDS (UniProt Q86SQ9) was tested, and the “dose-dependent thermal stabilisation call” value was inactive: 0.
In the case of CUGBP2 (UniProt O95319), the “dose-dependent thermal stabilisation call” value is reported as inactive: 0.
COX4I1 (UniProt P13073) was tested, and the “dose-dependent thermal stabilisation call” value was inactive: 0.
DCTN6 (UniProt O00399) was tested, and the “dose-dependent thermal stabilisation call” value was inactive: 0.
With DDHD1 (UniProt Q8NEL9) the “dose-dependent thermal stabilisation call” value was inactive: 0.
In the case of DEGS1 (UniProt O15121), the “dose-dependent thermal stabilisation call” value is reported as inactive: 0.
In the case of DDX47 (UniProt Q9H0S4), the “dose-dependent thermal stabilisation call” value is reported as inactive: 0.
For DHODH (UniProt Q02127), the “dose-dependent thermal stabilisation call” value was inactive: 0.
For CTPS (UniProt P17812), the “dose-dependent thermal stabilisation call” value was inactive: 0.
COX16 (UniProt Q9P0S2) was tested, and the “dose-dependent thermal stabilisation call” value was inactive: 0.
For COPG (UniProt Q9Y678), the “dose-dependent thermal stabilisation call” value was inactive: 0.
DDX58 (UniProt O95786) was tested, and the “dose-dependent thermal stabilisation call” value was inactive: 0.
With CSTF3 (UniProt Q12996) the “dose-dependent thermal stabilisation call” value was inactive: 0.
DHRS13 (UniProt Q6UX07) was tested, and the “dose-dependent thermal stabilisation call” value was inactive: 0.
With DDX3X (UniProt O00571) the “dose-dependent thermal stabilisation call” value was inactive: 0.
With DHX30 (UniProt Q7L2E3) the “dose-dependent thermal stabilisation call” value was inactive: 0.
In the case of CSRP1 (UniProt P21291), the “dose-dependent thermal stabilisation call” value is reported as inactive: 0.
DGCR8 (UniProt Q8WYQ5) was tested, and the “dose-dependent thermal stabilisation call” value was inactive: 0.
With DDX24 (UniProt Q9GZR7) the “dose-dependent thermal stabilisation call” value was inactive: 0.
With CTSA (UniProt P10619) the “dose-dependent thermal stabilisation call” value was inactive: 0.
With COMMD3 (UniProt Q9UBI1) the “dose-dependent thermal stabilisation call” value was inactive: 0.
In the case of CTNNAL1 (UniProt Q9UBT7), the “dose-dependent thermal stabilisation call” value is reported as inactive: 0.
In the case of CWF19L2 (UniProt Q2TBE0), the “dose-dependent thermal stabilisation call” value is reported as inactive: 0.
For DDX17 (UniProt Q92841), the “dose-dependent thermal stabilisation call” value was inactive: 0.
With CORO7 (UniProt P57737) the “dose-dependent thermal stabilisation call” value was inactive: 0.
